Source: ChEMBL document CHEMBL1765084, “Pyrimidine-2,4,6-trione derivatives and their inhibition of mutant SOD1-dependent protein aggregation. Toward a treatment for amyotrophic lateral sclerosis” (J Med Chem, 2011)
Converted amounts (≈) assume the structure as drawn.

Assay: Solubility of the compound in PBS buffer after 16 hrs

`O=C1CC(=O)N(CCc2cccc(F)c2)C(=O)N1CCc1cccc(F)c1` gave a solubility of 31.3 µM (≈ 11.7 µg/mL).
